Our source for the binding signal values is publication PMC7819943, “Rice protein-binding microarrays: a tool to detect cis-acting elements near promoter regions in rice”.

Sequences of proteins named here, by UniProt entry; tags and fusion partners are left off.
UniProt Q0JBA9, entry or part of it: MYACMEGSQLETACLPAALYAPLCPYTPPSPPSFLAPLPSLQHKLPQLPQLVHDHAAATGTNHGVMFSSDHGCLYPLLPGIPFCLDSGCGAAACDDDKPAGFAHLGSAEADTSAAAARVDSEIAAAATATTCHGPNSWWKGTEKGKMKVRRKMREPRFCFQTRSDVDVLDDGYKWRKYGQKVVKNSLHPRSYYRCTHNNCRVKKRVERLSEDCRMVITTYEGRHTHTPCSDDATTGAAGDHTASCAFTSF

The other results are listed elsewhere or left out.

For this assay, the target named is OsWRKY34 (Oryza sativa, UniProt Q0JBA9 1-250). The assay is described as follows: protein-binding microarray (RPBM); PBS, 2% BSA, 51.3 ng/ul salmon testes DNA, 50 uM zinc acetate, 200 nM TF, 25 C, 1 h; high values mean tight binding. To be noted: protein: recombinant; tags: N-terminal polyhistidine and DsRed monomer fusion (pET32a); label: CyDye5-dUTP incorporated in the synthesized complementary strand; 3' TTTTT single-stranded linker to array surface; dsDNA, one strand shown. In a few lines:
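Polyhistidine-tagged DsRed fusions of transcription factors, joined at the N-terminus, were expressed in E. coli BL21-CodonPlus and isolated on Ni–NTA. They were incubated at 200 nM for 1 h at 25 °C on a custom Agilent array, double-stranded and BSA-blocked, in PBS with 2% BSA, salmon testes DNA and 50 µM zinc acetate. The binding signal is per-feature fluorescence intensity (arbitrary units) read on an Axon 4000B scanner after washing.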
On to “TCCCCATCCGCCGGCCACCGCAGCTCCGCGCCTCCGCTTCCGGAGTCACCTAGTGCAG”, for which the binding signal is 8100 fluorescence intensity (a.u.).

Take “GCTCTCATTCCCTTGTCTCCAACTCTCCAGTCTCCACCCACGGAGTCACCTAGTGCAG”: the binding signal was 9470 fluorescence intensity (a.u.).

Regarding “GTTGTACACATAGGGATACTCTTTGTCATATGCCCATGCGCGGAGTCACCTAGTGCAG”, the binding signal is 9160 fluorescence intensity (a.u.).

Regarding “TAAATCCACGACCCTTCAGCTATCTATCTCAGCTCCAATCCGGAGTCACCTAGTGCAG”, the binding signal was 8170 fluorescence intensity (a.u.).

As for “GTGTGTGAATGACAAACGGGTCCCATGTATATGTTTTTAACGGAGTCACCTAGTGCAG”, the binding signal was 8860 fluorescence intensity (a.u.). Under “AAACCTCTTGACCCACACGATTCTTTCTATATATACCATACGGAGTCACCTAGTGCAG” stands 9280 fluorescence intensity (a.u.); under “TCTGATTTTACGGTTGGGGAACGATTTTGTAACTGGATGACGGAGTCACCTAGTGCAG”, 8300 fluorescence intensity (a.u.); under “TTGTTTCGAGCCAGGGTTTCGTTATGGTCTTGTATTTGCCCGGAGTCACCTAGTGCAG”, 8160 fluorescence intensity (a.u.). On to “GCTATTTATCTCATATGATGTCTTGGATGTTGTGTAGAAACGGAGTCACCTAGTGCAG”, for which the binding signal was 9490 fluorescence intensity (a.u.).

Take “GGCCACCACCTCGATGCTGACTCCTCTGTTCCGTCAACACCGGAGTCACCTAGTGCAG”: the binding signal was 9780 fluorescence intensity (a.u.). For “TACAGAGCTGGACGTTGCCATTACTATCTCATTGCCTTGACGGAGTCACCTAGTGCAG”, the binding signal was 9370 fluorescence intensity (a.u.). Regarding “TGTCACCGGCTTCATGTCCTCGATCGAGCCATCATCTCTTCGGAGTCACCTAGTGCAG”, the binding signal was 11000 fluorescence intensity (a.u.). Under “CAGCTTACTGTTTTTCCTCATCGCAACCATTATTAAGACTCGGAGTCACCTAGTGCAG” stands 8540 fluorescence intensity (a.u.). For the sequence “GTCTTCCTAGGCTTTCTCTTTCAGCTCGATCGATCCACAGCGGAGTCACCTAGTGCAG”, the binding signal was 9440 fluorescence intensity (a.u.). For “ACTATGTTGCTTCTTCCTTAATGCACATATAAATTAATTCCGGAGTCACCTAGTGCAG” the value was 8350 fluorescence intensity (a.u.); for “CTTTGGGCCACTAGTCCTCTTCATTGGTCTTTTGTTCCCACGGAGTCACCTAGTGCAG”, 12800 fluorescence intensity (a.u.). Under “CCCGACCTGGATTGACTACTTTGCCTCCAATTAACCCATTCGGAGTCACCTAGTGCAG” stands 11300 fluorescence intensity (a.u.).

For the sequence “CTCTTCCGCTTCCGCTTCCTTGTTCCTTCCCCTCGAAGCCCGGAGTCACCTAGTGCAG”, the binding signal was 9940 fluorescence intensity (a.u.). As for “TACCACTTCTGCATCACGCCGCTGTTCTTGCCGTGCGCTTCGGAGTCACCTAGTGCAG”, the binding signal was 9380 fluorescence intensity (a.u.). With “CCAGCCTACTCCACGTGCCATTCACTTGCCATCCGTGGATCGGAGTCACCTAGTGCAG”, the binding signal is 8920 fluorescence intensity (a.u.). Take “CAATCTCTCGCTGTGTCTCTCTCGCGCTCTCCACTAGCACCGGAGTCACCTAGTGCAG”: the binding signal is 9100 fluorescence intensity (a.u.). Under “GCTCACAACTCGGACTTTTATTTACTCCTCCATTGTAAAACGGAGTCACCTAGTGCAG” stands 9930 fluorescence intensity (a.u.); under “ATTACTCCAACTTTACTACCAAATGGTTTATTACGAGTACCGGAGTCACCTAGTGCAG”, 8750 fluorescence intensity (a.u.).

On to “ACGTACTCTACTGGCTCGGATTCACTCCCGTCCCGGCCCTCGGAGTCACCTAGTGCAG”, for which the binding signal is 10000 fluorescence intensity (a.u.). Take “TTCACGATTTCCGTCCTCCCTGTCACATTTTTCGTCGTCTCGGAGTCACCTAGTGCAG”: the binding signal was 8150 fluorescence intensity (a.u.). Under “TGCTCGCCGCGGTTGTTTCGCTAAGCTTCGTCTGGTTCTTCGGAGTCACCTAGTGCAG” stands 15700 fluorescence intensity (a.u.). Under “CCCCTCGAAGCCGAATCCGATGGTTCCTCCACCCGTTGACCGGAGTCACCTAGTGCAG” stands 15500 fluorescence intensity (a.u.); under “GGGGTTCTATAGGTGGGCAGAGGGGACAGAAGTGGAGGCTCGGAGTCACCTAGTGCAG”, 8420 fluorescence intensity (a.u.); under “TCATCACATCAATGCTTTCCTACACACACAAACTTCCAACCGGAGTCACCTAGTGCAG”, 8310 fluorescence intensity (a.u.). In the case of “TGCTTTGTACGTGTTTAATTTGTTGACTAATGCATGTTTCCGGAGTCACCTAGTGCAG”, the binding signal is 10100 fluorescence intensity (a.u.). Take “CCTGTAGCTCATCCAGCAACGTCTTGTCTTCATTGTTCTTCGGAGTCACCTAGTGCAG”: the binding signal was 13000 fluorescence intensity (a.u.). As to “GCTAGTATATTCATCCAAAATCCTACCTACAGTATTTATTCGGAGTCACCTAGTGCAG”, the binding signal was 9810 fluorescence intensity (a.u.). In the case of “ATCAATTCATCATATTCTTTCTTTCTAACTGGAGTACACTCGGAGTCACCTAGTGCAG”, the binding signal is 9250 fluorescence intensity (a.u.).

“GCCGCTCGTCCTCTCCGTTGGCAGATGAGTAAACCGCTTCCGGAGTCACCTAGTGCAG”: the binding signal was 8160 fluorescence intensity (a.u.). For “GATCTTCTACTGGTAGTCGCCGTGCAATCTCGCGAGTTCCCGGAGTCACCTAGTGCAG” the value was 8720 fluorescence intensity (a.u.). Under “AGCGCAGGTCTTTTTTTCTTTTTCAATAGCACTGCCTCCACGGAGTCACCTAGTGCAG” stands 8310 fluorescence intensity (a.u.). With “GACACCACCACAACGACGGCACCACCTCGTCCTTGCCATGCGGAGTCACCTAGTGCAG”, the binding signal was 9330 fluorescence intensity (a.u.). For “GTTCAGCACTTCAGCCCCGCCGCCGTCTCCGCCGCTCAAACGGAGTCACCTAGTGCAG” the value was 11400 fluorescence intensity (a.u.). Under “CAACACACAACTACTCCCTAGTCTCAAGTCACAACCCACACGGAGTCACCTAGTGCAG” stands 9070 fluorescence intensity (a.u.); under “CCCTATGCTTTTCTGCCCGCGACCGTGCTCGCGCTCCACTCGGAGTCACCTAGTGCAG”, 10200 fluorescence intensity (a.u.). “GCGCGCGCCGGCCTCCGTCTTCCTCCGCGGGTGCGCCACCCGGAGTCACCTAGTGCAG”: the binding signal was 10400 fluorescence intensity (a.u.). Consider “TTAGCACATGTTTGACCGTTCGTCTTATTCAAAAAATTTACGGAGTCACCTAGTGCAG”, for which the binding signal was 10400 fluorescence intensity (a.u.).
